Test results as given in the supplement of paper PMC12067093, “Discovery and optimisation of a covalent ligand for TRIM25 and its application to targeted protein ubiquitination” (Chemical Science, 2025).
The list shows a part of the results.

Amino acid sequences for entries named in this document (tags omitted). A change or cut given only in a name is not applied to a line headed by its entry.
UniProt O95479: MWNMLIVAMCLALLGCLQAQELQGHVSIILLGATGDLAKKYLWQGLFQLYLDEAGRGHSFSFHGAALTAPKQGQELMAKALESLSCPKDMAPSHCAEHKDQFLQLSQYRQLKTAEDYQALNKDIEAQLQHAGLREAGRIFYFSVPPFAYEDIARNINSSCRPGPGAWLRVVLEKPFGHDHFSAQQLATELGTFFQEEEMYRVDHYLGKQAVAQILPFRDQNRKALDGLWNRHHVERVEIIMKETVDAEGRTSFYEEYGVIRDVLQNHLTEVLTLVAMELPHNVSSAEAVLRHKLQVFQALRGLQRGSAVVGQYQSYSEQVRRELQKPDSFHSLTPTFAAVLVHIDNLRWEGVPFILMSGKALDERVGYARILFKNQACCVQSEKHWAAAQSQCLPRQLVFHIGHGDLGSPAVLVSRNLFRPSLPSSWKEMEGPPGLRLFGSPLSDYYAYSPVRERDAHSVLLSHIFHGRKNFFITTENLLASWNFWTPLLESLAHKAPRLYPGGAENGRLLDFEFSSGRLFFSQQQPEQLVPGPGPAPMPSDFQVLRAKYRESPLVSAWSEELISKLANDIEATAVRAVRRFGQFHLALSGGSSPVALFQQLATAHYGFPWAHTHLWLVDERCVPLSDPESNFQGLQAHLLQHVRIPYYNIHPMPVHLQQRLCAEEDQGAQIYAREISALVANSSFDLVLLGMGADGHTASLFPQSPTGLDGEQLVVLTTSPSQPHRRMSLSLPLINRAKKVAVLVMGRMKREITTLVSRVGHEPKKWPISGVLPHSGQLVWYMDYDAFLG
UniProt Q12789: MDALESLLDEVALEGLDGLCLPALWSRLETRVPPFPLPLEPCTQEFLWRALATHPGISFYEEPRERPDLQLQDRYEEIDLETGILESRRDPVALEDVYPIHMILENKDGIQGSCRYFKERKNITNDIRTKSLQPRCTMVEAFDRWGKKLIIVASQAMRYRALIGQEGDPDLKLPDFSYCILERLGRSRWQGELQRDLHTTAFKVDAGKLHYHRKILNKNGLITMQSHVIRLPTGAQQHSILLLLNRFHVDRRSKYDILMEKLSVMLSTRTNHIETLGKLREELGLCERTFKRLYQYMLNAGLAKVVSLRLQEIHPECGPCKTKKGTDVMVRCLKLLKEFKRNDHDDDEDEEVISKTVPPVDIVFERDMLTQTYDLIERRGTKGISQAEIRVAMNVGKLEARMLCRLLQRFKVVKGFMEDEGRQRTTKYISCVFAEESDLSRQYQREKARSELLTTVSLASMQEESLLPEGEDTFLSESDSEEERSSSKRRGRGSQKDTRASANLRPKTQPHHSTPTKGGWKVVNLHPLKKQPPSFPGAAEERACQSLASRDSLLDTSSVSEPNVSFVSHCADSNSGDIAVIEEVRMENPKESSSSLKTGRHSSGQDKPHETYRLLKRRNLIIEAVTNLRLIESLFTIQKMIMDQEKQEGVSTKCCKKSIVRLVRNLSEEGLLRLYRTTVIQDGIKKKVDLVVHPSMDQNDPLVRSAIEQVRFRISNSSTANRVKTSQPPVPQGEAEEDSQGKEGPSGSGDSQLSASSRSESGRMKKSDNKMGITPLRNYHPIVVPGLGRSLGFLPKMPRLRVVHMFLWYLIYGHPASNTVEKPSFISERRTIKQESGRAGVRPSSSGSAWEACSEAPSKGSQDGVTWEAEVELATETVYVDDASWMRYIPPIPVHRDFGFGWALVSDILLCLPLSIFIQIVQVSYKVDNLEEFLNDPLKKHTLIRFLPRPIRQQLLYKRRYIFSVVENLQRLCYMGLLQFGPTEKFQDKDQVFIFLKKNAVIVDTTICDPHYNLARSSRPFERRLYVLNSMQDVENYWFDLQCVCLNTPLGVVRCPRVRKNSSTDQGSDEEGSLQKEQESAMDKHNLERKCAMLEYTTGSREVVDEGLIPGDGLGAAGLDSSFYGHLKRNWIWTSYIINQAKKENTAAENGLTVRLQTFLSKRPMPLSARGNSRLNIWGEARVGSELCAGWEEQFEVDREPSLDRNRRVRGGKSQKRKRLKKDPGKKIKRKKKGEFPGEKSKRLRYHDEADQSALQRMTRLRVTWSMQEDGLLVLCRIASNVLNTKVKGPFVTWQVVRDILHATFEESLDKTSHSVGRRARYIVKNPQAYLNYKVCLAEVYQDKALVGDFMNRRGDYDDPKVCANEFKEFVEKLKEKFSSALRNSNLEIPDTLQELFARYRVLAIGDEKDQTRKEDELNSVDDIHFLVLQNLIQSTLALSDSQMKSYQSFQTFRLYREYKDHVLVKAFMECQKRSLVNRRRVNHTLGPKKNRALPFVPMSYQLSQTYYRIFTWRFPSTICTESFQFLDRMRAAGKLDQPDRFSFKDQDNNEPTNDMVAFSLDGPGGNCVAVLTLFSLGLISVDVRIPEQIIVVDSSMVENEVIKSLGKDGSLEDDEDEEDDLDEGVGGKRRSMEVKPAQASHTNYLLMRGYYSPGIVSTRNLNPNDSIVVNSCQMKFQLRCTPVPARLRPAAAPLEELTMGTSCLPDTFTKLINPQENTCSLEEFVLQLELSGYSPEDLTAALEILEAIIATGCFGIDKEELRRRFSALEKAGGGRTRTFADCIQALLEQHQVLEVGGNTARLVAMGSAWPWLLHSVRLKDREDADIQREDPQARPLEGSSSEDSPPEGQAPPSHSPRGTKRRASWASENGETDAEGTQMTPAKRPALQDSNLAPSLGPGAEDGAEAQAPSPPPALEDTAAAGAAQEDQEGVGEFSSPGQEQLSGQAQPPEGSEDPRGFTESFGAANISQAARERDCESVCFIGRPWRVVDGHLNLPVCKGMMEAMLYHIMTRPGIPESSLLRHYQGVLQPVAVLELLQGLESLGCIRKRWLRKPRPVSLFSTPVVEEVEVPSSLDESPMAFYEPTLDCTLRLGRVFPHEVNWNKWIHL
UniProt P52657, whole entry, looked up: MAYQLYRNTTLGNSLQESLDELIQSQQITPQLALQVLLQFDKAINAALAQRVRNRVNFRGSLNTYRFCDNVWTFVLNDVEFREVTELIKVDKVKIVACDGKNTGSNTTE
UniProt P21266: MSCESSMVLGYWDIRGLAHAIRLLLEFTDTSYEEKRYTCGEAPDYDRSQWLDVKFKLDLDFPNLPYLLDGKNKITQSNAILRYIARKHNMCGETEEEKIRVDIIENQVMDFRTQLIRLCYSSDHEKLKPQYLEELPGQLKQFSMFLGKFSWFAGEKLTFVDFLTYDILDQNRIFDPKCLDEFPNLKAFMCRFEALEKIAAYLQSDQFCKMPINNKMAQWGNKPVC
UniProt P07203, whole entry, looked up: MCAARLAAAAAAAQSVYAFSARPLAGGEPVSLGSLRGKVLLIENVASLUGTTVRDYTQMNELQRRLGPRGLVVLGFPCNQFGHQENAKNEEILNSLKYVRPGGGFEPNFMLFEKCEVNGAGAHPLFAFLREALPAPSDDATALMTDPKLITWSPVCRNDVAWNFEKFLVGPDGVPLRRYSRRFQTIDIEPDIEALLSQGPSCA
UniProt Q9UKN8: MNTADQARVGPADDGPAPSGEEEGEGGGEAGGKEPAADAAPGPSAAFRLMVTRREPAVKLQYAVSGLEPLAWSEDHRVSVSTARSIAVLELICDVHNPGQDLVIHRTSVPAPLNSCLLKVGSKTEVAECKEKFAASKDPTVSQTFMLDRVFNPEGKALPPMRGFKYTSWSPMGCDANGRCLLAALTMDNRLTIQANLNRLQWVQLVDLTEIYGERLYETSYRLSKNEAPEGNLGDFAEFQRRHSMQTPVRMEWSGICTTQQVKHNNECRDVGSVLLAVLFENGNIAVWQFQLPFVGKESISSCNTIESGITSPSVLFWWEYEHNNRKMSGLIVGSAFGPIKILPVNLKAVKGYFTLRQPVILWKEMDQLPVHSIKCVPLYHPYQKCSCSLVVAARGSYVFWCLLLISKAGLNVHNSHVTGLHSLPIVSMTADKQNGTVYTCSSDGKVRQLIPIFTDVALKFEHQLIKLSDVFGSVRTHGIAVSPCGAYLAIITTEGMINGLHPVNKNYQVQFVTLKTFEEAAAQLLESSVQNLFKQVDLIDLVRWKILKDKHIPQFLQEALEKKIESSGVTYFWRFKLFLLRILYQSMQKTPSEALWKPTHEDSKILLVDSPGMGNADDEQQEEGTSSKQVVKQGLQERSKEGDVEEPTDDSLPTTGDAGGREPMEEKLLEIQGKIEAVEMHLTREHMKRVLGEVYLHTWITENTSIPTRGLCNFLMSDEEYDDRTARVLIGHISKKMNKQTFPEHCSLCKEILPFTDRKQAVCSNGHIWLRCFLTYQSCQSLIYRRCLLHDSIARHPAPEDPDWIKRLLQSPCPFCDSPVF
UniProt P40939: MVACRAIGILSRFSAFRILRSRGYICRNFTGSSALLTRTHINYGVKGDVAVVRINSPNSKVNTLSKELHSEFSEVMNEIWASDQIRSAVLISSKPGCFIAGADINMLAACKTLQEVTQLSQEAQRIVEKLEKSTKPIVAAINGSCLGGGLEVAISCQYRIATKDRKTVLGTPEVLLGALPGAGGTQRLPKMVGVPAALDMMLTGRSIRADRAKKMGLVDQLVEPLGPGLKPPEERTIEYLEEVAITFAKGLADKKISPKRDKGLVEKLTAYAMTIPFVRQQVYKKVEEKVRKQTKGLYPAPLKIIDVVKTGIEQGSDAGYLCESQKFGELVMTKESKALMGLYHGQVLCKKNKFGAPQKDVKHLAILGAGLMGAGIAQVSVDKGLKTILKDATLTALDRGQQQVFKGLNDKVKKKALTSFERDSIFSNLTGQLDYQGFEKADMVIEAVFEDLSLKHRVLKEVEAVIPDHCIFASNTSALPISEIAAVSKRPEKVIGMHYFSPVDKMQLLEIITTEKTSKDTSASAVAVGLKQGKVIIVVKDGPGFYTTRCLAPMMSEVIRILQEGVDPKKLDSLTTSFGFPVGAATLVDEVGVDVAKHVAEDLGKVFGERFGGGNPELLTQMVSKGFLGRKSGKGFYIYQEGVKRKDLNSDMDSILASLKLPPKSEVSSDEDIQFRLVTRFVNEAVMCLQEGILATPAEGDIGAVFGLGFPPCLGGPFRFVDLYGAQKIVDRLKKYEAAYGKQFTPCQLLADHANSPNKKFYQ
UniProt Q9BQ67, whole entry, looked up: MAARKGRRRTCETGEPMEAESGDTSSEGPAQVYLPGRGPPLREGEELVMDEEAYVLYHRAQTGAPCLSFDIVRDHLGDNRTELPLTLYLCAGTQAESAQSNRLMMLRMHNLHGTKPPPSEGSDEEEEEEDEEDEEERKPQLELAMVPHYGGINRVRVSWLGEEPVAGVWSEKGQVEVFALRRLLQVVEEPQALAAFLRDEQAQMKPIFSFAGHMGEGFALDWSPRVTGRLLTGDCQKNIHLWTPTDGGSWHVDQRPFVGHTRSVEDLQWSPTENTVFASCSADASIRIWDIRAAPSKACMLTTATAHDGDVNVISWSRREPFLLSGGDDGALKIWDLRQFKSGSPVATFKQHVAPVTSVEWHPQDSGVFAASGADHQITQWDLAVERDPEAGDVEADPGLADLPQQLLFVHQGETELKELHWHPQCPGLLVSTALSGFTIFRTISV
UniProt Q9UBQ7: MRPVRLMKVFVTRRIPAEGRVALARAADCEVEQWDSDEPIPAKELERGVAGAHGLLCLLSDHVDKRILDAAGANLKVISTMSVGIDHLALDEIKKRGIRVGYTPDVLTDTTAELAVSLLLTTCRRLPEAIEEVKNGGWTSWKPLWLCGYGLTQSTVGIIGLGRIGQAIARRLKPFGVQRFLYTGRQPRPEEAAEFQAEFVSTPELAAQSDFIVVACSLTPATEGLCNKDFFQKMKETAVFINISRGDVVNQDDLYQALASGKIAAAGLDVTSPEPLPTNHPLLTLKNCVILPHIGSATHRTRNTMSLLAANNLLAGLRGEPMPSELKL
UniProt P13807: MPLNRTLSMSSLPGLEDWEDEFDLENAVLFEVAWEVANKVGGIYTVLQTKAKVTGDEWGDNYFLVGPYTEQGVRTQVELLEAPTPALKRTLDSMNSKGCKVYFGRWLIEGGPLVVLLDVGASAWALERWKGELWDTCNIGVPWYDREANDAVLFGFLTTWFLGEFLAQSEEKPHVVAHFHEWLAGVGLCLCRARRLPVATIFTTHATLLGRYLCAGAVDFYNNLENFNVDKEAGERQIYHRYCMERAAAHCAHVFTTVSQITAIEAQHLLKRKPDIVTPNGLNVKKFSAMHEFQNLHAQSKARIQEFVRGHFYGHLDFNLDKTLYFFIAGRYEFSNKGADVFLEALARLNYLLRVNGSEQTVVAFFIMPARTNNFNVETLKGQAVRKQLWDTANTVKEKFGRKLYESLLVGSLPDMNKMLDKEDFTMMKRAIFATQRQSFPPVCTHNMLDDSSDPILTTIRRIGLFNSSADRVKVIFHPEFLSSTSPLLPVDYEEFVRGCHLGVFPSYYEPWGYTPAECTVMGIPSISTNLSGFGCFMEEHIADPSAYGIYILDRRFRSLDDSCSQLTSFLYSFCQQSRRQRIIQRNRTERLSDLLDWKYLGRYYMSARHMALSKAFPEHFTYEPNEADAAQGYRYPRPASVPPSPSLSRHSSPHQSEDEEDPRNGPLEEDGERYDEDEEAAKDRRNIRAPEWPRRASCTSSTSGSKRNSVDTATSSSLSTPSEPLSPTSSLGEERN

Compound: CC1Cc2ccccc2N1C(=O)C1CCCN(C1)C(=O)CCl (mixture of isomers) [TRIM25 ligand 11 (diastereomer mixture)]
Assay: probe-labelled cysteine peptide fold change vs DMSO (competition) (log2 fold change); higher = less target engagement (more negative = stronger competition)
Conditions: THP-1, incubation time: 4 h
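Also: competitive chemoproteomic profiling in live THP-1 cells with an iodoacetamide desthiobiotin (IA-DTB) probe, comparing probe-labelled peptide intensities in compound-treated cells against DMSO-treated controls.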

Target | probe-labelled cysteine peptide fold change (10 µM) | probe-labelled cysteine peptide fold change (50 µM)
H6PD_O95479_663_LCAEEDQGAQIYAR (UniProt O95479) | 0.0447 | 0.138
GRN_P28799_481_QHCCPAGYTCNVK (UniProt P28799) | -0.0356 | 0.144
HAUS5_O94927_446_CLEEEVR (UniProt O94927) | -0.00691 | -0.048
GSK3B_P49841_335_LTPLEACAHSFFDELRDPNVK (UniProt P49841) | 0.0464 | 0.000309
GTF3C1_Q12789_544_ACQSLASR (UniProt Q12789) | -0.0578 | -0.212
HACE1_Q8IYU2_508_IIFDHFHFLLECPELMSR (UniProt Q8IYU2) | -0.0264 | 0.0704
GZF1_Q9H116_282_NEGCQAGAELEELSK (UniProt Q9H116) | -0.0126 | -0.196
GSPT1_P15170_381_GIEEEEILPGFILCDPNNLCHSGR (UniProt P15170) | 0.0954 | 0.384
HACL1_Q9UJ83_307_FIQVDICAEELGNNVKPAVTLLGNIHAVTK (UniProt Q9UJ83) | -0.355 | -0.0368
GSDMD_P57764_268_CLHNFLTDGVPAEGAFTEDFQGLR (UniProt P57764) | 0.417 | 0.546
GSDMD_P57764_56_CVNLSIK (UniProt P57764) | -0.0386 | 0.0346
GRN_P28799_534_DVECGEGHFCHDNQTCCR (UniProt P28799) | -0.0572 | -0.106
GPS1_Q13098_175_GHDDLGDHYLDCGDLSNALK (UniProt Q13098) | -0.0088 | -0.125
GTF3C5_Q9Y5Q8_26_MVCVEYPGVVR (UniProt Q9Y5Q8) | 0.168 | 0.0635
GSR_P00390_134_KVMWNTAVHSEFMHDHADYGFPSCEGK (UniProt P00390) | -0.252 | -0.112
GTF3C1_Q12789_1091_CAMLEYTTGSR (UniProt Q12789) | 0.162 | 0.0373
GTF2A2_P52657_68_FCDNVWTFVLNDVEFR (UniProt P52657) | -0.0763 | -0.207
GPN1_Q9HCN4_21_HPVCLLVLGMAGSGK (UniProt Q9HCN4) | -0.167 | -0.0368
GSTM3_P21266_91_KHNMCGETEEEK (UniProt P21266) | -0.0795 | -0.0979
HACE1_Q8IYU2_172_TELLHDLVQHVSDVDVEDAMGQTALHVACQNGHK (UniProt Q8IYU2) | 0.071 | -0.027
GPX1_P07203_78_GLVVLGFPCNQFGHQENAK (UniProt P07203) | -0.043 | 0.0745

Three consecutive entries from above, quoted:
Target | probe-labelled cysteine peptide fold change (10 µM) | probe-labelled cysteine peptide fold change (50 µM)
GSTM3_P21266_91_KHNMCGETEEEK (UniProt P21266) | -0.0795 | -0.0979
HACE1_Q8IYU2_172_TELLHDLVQHVSDVDVEDAMGQTALHVACQNGHK (UniProt Q8IYU2) | 0.071 | -0.027
GPX1_P07203_78_GLVVLGFPCNQFGHQENAK (UniProt P07203) | -0.043 | 0.0745

Further entries follow:

Target | probe-labelled cysteine peptide fold change (10 µM) | probe-labelled cysteine peptide fold change (50 µM)
GSS_P48637_294_CPDIATQLAGTK (UniProt P48637) | -0.0406 | -0.0273
GSPT1_P15170_327_LESGSICK (UniProt P15170) | 0.118 | 0.0281
GTF2H1_P32780_478_HFWSCFPVNTPFLEEK (UniProt P32780) | 0.229 | 0.375
GSDMD_P57764_38_RVVQELDHGGEFIPVTSLQSSTGFQPYCLVVR (UniProt P57764) | 0.181 | 0.095
GRN_P28799_558_HCCPAGFR (UniProt P28799) | -0.148 | -0.203
GTF3C3_Q9Y5Q9_810_GPCQESFYNLGR (UniProt Q9Y5Q9) | 0.136 | 0.284
GRB2_P62993_32_VLNEECDQNWYK (UniProt P62993) | -0.0196 | 0.0622
GTSE1_Q9NYZ3_436_DSCLNSK (UniProt Q9NYZ3) | -0.103 | -0.0749
GPRIN1_Q7Z2K8_221_VDPLCSSK (UniProt Q7Z2K8) | -0.249 | -0.0855
GTF3C3_Q9Y5Q9_172_GEREEAILMCMEIIR (UniProt Q9Y5Q9) | -0.00985 | 0.106
GTF3C4_Q9UKN8_268_HNNECR (UniProt Q9UKN8) | 0.179 | 0.5
HAUS4_Q9H6D7_272_CGAMILK (UniProt Q9H6D7) | -0.00499 | 0.197
GPT2_Q8TD30_311_LFLLADEVYQDNVYSPDCR (UniProt Q8TD30) | 0.0835 | -0.272
GSR_P00390_377_GIYAVGDVCGK (UniProt P00390) | 0.0097 | 0.109
GTF3C4_Q9UKN8_441_QNGTVYTCSSDGK (UniProt Q9UKN8) | 0.00781 | 0.155
HADHA_P40939_747_QFTPCQLLADHANSPNK (UniProt P40939) | 0.12 | -0.00386
GRWD1_Q9BQ67_90_DHLGDNRTELPLTLYLCAGTQAESAQSNR (UniProt Q9BQ67) | -0.184 | 0.0239
GRN_P28799_165+171_VHCCPHGAFCDLVHTR (UniProt P28799) | 0.198 | 0.0803
GTF3C1_Q12789_1783_TFADCIQALLEQHQVLEVGGNTAR (UniProt Q12789) | -0.0529 | -0.00702
HADHA_P40939_747_QFTPCQLLADHANSPNKK (UniProt P40939) | -0.064 | -0.094
GRHPR_Q9UBQ7_288_NCVILPHIGSATHR (UniProt Q9UBQ7) | 0.0388 | 0.0258

Target | probe-labelled cysteine peptide fold change (10 µM) | probe-labelled cysteine peptide fold change (50 µM)
GSTCD_Q8NEC7_449_IVDFCSGGGHVGIVLAHMLPSCQVTLIENK (UniProt Q8NEC7) | -0.016 | 0.0688
GYS1_P13807_564_SLDDSCSQLTSFLYSFCQQSR (UniProt P13807) | -0.327 | -0.0499
GTPBP2_Q9BX10_249_TAEEICESSSK (UniProt Q9BX10) | 0.027 | 0.0181
GTF3C5_Q9Y5Q8_242_RVCTNPVDR (UniProt Q9Y5Q8) | -0.101 | -0.0886
GRK4_P32298_204_GGFGEVCACQVR (UniProt P32298) | 0.149 | 0.0931
HAUS2_Q9NVX0_43_TVSCFVNFTR (UniProt Q9NVX0) | 0.065 | 0.0626
GSR_P00390_484_VVGIHMQGLGCDEMLQGFAVAVK (UniProt P00390) | 0.00688 | -0.0299
HAT1_O14929_101_VDENFDCVEADDVEGK (UniProt O14929) | 0.145 | 0.106
GRWD1_Q9BQ67_66_AQTGAPCLSFDIVR (UniProt Q9BQ67) | -0.169 | -0.206
GRHPR_Q9UBQ7_57_GVAGAHGLLCLLSDHVDKR (UniProt Q9UBQ7) | -0.0063 | -0.0177
GTSF1_Q8WW33_100+103_QETLAESTWQCPPCDEDWDK (UniProt Q8WW33) | 0.167 | 0.00661
GSTM1_P09488_115_IRVDILENQTMDNHMQLGMICYNPEFEK (UniProt P09488) | 0.0298 | -0.105
H6PD_O95479_95_DMAPSHCAEHK (UniProt O95479) | -0.085 | -0.0387
GTF2I_P78347_475_KMVDQLFCK (UniProt P78347) | -0.349 | -0.218
GRN_P28799_533_DVECGEGHFCHDNQTCCR (UniProt P28799) | -0.262 | -0.177
GPX7_Q96SL4_86_DLGPHHFNVLAFPCNQFGQQEPDSNK (UniProt Q96SL4) | -0.112 | 0.00112
GSKIP_Q9P0R6_59_CADDVAYINVETK (UniProt Q9P0R6) | 0.0511 | 0.135
GTF2I_P78347_745_CGEALGLK (UniProt P78347) | 0.0477 | -0.158
GRSF1_Q12849_476_YIELFLNSCPK (UniProt Q12849) | 0.0157 | -0.163
GTF2B_Q00403_34+37_AGDMICPECGLVVGDR (UniProt Q00403) | 0.187 | 0.0217
GSDMD_P57764_38_VVQELDHGGEFIPVTSLQSSTGFQPYCLVVR (UniProt P57764) | -0.301 | 0.0224

Target | probe-labelled cysteine peptide fold change (10 µM) | probe-labelled cysteine peptide fold change (50 µM)
GSTM3_P21266_39_RYTCGEAPDYDR (UniProt P21266) | 0.0166 | 0.0201
GTPBP6_O43824_99_VCLVHPDVK (UniProt O43824) | -0.0184 | -0.0422
GPX1_P07203_202_RFQTIDIEPDIEALLSQGPSCA (UniProt P07203) | -0.0744 | -0.0327
HAUS3_Q68CZ6_271_LQLAYICAQHQLIHLK (UniProt Q68CZ6) | -0.131 | 0.0633
GTF3C1_Q12789_1188_VGSELCAGWEEQFEVDREPSLDR (UniProt Q12789) | -0.00354 | 0.0552
GTF3C5_Q9Y5Q8_432_NDGAENSCTER (UniProt Q9Y5Q8) | 0.333 | -0.445
GPX1_P07203_49_VLLIENVASLUGTTVR (UniProt P07203) | 0.026 | 0.0876
GTF2H4_Q92759_16_VHLQCR (UniProt Q92759) | -0.0652 | -0.00142
GTF3A_Q92664_62_LDAHLCK (UniProt Q92664) | -0.0638 | -0.00835
GTF2A2_P52657_98_IVACDGK (UniProt P52657) | -0.116 | -0.151
H6PD_O95479_86_ALESLSCPK (UniProt O95479) | -0.13 | -0.00529
GRK2_P25098_559_DCIMHGYMSK (UniProt P25098) | -0.133 | -0.219
HARS_P12081_224_ILDGMFAICGVSDSK (UniProt P12081) | 0.00218 | -0.0711
GPR108_Q9NPR9_104_DFQDCPLQK (UniProt Q9NPR9) | -0.00493 | -0.0183
GSDMD_P57764_191_FSLPGATCLQGEGQGHLSQKK (UniProt P57764) | -0.0128 | -0.546
GYS1_P13807_699_ASCTSSTSGSK (UniProt P13807) | -0.136 | -0.138
GRK6_P43250_57_DYHSLCER (UniProt P43250) | -0.111 | -0.0656
H2AFY_O75367_276+286_FVIHCNSPVWGADKCEELLEK (UniProt O75367) | -0.287 | -0.186
